Measured values as given in the supplement of paper PMC10849652.
The other results are listed elsewhere or left out.

Sequences of proteins named here, by UniProt entry; tags and fusion partners are left off. A change or cut given only in a name is not applied to a line headed by its entry.
UniProt Q9BWP8: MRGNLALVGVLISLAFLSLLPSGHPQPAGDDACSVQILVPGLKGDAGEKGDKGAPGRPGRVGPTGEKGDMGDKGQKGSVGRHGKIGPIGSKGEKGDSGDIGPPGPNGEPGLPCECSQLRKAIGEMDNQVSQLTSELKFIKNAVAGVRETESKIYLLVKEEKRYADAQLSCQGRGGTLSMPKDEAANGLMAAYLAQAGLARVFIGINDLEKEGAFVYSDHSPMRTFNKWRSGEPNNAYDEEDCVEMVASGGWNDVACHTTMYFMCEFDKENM
UniProt P29373: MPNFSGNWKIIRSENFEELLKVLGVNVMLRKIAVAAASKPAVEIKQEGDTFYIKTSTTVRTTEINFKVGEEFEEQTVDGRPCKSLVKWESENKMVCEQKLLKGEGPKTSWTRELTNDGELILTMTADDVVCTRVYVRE
UniProt P02452, whole entry, looked up: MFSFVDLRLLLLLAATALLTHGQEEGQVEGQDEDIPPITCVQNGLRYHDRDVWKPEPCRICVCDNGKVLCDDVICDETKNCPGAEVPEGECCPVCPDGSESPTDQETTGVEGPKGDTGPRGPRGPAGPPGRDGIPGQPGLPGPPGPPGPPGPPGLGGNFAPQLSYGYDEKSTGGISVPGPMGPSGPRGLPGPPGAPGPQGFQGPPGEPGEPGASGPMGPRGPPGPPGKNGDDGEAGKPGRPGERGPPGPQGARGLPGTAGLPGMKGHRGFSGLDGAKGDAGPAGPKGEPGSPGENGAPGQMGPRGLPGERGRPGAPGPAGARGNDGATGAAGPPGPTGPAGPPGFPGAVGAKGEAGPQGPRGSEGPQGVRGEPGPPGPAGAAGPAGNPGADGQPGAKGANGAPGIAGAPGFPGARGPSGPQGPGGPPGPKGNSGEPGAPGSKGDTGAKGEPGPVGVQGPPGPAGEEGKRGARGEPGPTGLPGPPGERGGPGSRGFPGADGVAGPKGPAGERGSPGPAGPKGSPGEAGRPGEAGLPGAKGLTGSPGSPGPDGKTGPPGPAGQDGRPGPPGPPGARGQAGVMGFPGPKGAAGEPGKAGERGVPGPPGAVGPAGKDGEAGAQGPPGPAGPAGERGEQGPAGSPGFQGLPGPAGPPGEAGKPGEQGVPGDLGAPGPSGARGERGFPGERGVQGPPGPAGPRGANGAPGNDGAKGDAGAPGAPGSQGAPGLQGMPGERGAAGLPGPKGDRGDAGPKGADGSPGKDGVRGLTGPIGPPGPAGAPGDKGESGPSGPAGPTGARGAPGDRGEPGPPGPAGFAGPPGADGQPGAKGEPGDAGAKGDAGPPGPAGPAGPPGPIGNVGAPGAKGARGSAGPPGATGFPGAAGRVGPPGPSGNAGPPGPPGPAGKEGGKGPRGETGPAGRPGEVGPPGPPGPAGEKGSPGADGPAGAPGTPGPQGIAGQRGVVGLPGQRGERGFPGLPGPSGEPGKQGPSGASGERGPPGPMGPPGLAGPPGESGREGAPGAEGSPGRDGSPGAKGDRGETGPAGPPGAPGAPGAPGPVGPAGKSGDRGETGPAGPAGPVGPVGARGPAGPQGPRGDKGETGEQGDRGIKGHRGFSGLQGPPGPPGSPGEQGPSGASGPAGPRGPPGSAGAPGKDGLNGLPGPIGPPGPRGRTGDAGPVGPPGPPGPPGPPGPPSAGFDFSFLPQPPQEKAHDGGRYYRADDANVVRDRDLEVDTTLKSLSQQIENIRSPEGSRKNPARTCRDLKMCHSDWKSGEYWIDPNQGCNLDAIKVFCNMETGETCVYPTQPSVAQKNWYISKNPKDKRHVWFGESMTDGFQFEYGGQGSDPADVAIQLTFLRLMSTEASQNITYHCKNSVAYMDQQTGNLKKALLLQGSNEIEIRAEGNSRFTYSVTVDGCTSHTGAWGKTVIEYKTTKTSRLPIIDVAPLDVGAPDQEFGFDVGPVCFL
UniProt Q96BR5: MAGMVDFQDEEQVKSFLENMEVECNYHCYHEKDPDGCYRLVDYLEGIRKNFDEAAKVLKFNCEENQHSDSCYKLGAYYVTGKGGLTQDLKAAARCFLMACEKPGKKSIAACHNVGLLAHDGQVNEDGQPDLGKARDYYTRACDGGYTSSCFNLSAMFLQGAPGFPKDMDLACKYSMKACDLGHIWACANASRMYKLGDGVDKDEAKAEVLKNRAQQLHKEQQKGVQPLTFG
UniProt Q8WXC6: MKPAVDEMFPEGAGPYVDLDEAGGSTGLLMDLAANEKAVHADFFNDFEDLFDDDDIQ
UniProt Q14061: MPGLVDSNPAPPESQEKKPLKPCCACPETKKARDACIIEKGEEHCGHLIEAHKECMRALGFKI
UniProt Q9BU20: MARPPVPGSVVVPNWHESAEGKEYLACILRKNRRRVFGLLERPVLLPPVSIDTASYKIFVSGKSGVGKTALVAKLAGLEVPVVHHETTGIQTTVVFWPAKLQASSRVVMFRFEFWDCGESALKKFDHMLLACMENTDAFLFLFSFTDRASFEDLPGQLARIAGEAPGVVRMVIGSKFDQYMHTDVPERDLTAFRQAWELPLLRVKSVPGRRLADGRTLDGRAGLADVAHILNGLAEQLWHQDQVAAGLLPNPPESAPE
UniProt Q9H0A8, whole entry, looked up: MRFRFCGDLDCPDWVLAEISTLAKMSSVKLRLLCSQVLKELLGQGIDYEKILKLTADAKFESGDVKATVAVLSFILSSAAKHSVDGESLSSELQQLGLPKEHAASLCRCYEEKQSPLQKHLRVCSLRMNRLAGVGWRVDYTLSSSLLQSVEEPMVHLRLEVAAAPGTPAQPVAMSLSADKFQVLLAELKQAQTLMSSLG
UniProt Q92828: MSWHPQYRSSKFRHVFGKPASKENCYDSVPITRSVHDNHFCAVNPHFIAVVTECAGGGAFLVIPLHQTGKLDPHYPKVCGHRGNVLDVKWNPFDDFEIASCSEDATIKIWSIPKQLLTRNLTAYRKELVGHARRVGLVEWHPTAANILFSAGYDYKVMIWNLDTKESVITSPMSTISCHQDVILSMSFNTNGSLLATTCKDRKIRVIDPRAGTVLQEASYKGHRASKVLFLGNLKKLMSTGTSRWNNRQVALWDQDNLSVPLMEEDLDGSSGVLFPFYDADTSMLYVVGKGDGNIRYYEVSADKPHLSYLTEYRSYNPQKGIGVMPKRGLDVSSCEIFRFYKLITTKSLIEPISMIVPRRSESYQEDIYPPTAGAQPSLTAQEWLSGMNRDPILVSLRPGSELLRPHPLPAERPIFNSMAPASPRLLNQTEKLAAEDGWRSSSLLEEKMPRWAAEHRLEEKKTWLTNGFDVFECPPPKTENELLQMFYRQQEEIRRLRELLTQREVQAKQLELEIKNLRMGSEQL
UniProt Q9Y2Z9: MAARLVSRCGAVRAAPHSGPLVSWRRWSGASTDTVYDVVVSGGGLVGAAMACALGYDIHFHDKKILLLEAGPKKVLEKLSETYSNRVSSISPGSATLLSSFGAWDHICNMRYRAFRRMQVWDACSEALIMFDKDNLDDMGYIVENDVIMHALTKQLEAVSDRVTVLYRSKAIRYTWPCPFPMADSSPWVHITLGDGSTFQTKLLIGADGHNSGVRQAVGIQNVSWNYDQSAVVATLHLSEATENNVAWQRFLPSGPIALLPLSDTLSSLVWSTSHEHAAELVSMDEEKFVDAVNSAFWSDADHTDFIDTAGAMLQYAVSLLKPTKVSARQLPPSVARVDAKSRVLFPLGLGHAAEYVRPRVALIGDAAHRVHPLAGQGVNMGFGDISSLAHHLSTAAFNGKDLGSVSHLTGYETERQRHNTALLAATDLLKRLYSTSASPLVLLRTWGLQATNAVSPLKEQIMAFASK
UniProt Q8N4Y2: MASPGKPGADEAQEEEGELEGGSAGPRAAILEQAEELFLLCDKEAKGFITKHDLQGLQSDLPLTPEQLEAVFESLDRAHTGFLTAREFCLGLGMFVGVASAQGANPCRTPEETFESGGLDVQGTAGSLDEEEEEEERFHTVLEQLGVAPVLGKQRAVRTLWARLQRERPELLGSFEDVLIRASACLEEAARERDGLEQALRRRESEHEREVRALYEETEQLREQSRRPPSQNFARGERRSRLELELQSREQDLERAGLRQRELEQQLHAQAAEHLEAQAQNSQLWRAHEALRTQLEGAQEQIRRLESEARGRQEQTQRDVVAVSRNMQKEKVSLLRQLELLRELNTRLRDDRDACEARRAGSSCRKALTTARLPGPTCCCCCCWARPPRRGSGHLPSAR
UniProt Q96I36: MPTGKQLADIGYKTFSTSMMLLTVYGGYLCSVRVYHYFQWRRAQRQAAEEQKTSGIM
UniProt Q96KP4: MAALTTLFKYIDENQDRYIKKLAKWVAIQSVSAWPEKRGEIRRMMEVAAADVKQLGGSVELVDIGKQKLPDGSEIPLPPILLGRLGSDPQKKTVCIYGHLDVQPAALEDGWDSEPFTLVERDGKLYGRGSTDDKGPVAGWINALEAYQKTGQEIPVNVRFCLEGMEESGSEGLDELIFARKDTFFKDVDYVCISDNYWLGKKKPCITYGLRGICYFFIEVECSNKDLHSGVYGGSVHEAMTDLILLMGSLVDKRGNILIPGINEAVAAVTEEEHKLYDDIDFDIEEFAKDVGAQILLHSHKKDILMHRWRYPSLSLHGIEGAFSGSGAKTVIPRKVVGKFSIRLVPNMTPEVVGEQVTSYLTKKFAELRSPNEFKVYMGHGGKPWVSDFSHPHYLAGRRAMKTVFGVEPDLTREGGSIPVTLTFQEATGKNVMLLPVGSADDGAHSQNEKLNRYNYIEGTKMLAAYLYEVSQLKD
UniProt Q14746: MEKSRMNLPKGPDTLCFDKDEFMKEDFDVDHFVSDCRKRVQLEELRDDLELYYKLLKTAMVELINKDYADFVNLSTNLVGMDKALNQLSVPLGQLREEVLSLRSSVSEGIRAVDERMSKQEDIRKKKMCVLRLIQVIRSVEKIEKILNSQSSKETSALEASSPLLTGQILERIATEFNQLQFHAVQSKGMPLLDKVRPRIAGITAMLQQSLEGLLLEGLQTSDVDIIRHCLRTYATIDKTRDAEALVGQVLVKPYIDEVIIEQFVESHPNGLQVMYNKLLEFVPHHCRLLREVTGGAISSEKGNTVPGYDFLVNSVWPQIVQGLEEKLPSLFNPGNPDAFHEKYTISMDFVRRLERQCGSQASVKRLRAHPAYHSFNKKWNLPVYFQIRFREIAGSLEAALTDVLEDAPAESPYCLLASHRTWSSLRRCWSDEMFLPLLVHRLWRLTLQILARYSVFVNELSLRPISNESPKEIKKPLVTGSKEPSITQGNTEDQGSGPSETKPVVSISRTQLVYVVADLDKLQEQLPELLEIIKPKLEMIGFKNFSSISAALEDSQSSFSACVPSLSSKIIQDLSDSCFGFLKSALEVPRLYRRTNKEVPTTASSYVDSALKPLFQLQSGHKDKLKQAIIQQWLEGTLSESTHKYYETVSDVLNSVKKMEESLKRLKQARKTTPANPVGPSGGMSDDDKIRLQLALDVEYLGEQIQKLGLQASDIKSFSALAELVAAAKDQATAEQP
UniProt Q7Z4G1, whole entry, looked up: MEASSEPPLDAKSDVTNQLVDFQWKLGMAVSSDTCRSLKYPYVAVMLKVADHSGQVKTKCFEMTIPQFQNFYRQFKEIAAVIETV
UniProt Q9UI42: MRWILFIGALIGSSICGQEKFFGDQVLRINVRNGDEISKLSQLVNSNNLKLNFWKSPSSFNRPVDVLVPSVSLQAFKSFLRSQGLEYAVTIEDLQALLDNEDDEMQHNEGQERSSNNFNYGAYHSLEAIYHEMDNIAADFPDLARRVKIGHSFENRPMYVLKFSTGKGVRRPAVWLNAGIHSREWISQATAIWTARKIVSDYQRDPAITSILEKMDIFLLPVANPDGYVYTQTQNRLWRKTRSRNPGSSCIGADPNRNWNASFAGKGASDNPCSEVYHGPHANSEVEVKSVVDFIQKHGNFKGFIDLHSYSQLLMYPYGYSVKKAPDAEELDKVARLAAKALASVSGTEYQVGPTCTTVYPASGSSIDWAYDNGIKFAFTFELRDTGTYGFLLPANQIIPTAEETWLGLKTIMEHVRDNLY
UniProt Q9H9A5, whole entry, looked up: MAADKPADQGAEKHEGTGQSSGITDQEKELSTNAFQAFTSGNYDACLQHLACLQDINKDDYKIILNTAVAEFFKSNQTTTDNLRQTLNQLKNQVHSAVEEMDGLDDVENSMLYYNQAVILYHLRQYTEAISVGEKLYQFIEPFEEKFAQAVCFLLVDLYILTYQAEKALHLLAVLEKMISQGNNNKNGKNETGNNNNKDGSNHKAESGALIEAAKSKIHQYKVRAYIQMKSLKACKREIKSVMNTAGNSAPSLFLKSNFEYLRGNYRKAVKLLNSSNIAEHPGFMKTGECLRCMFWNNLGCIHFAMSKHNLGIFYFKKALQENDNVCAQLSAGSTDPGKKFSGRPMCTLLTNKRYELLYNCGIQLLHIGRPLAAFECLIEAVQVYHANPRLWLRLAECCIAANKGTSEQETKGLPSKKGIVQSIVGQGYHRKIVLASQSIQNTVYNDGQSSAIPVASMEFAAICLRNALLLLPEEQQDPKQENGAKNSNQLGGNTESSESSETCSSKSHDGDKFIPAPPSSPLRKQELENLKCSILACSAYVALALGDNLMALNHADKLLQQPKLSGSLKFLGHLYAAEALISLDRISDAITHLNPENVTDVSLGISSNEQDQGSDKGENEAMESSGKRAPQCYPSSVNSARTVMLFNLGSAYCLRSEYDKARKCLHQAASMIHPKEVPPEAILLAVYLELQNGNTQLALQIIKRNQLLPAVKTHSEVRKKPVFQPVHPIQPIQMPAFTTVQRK

Each target was assayed with O=C(O)c1ccc2c(c1)nc(Nc1cccc(Cl)c1)c1ccncc12 [silmitasertib] (assay: log2 fold change, soluble protein after heating vs DMSO (PISA); higher = thermal stabilisation; K562 lysate, 10 uM; active = over 0.2 and 3.5 SD of the protein, either way, in both replicates (recomputed)).
Outline: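 Following dounce homogenisation of K562 pellets in PBS pH 7.4 with 1 mM MgCl2, crude extract at 1 mg/mL protein was incubated for 30 min with 10 μM compound. Aliquots were then heated for 3 min over 48°C-58°C and pooled, NP-40 was added to 0.5% at 4°C, and soluble protein was recovered as the supernatant at 21,000xg for 90 min. Channel-sum-equalised TMTpro 16plex LC-MS/MS quantified this protein. Each value, from duplicates, is a log-two fold change in thermal stability relative to solvent controls.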

log2 fold change, inactive:
CNTROB isoform 2 (UniProt Q8N137) 0.104
COL6A3 (UniProt P12111) 0.002
COMMD3-BMI1 (UniProt R4GMX3) -0.095
CNK3/IPCEF1 isoform 2 (UniProt G9CGD6) 0.06
COLEC11 isoform 10 (UniProt Q9BWP8) 0.026
CRABP2 (UniProt P29373) -0.05
COL1A1 (UniProt P02452) -0.048
COA7 (UniProt Q96BR5) -0.023
COPS9 (UniProt Q8WXC6) -0.139
CNOT2 (UniProt F8VRS8) 0.152
COX7B (UniProt P24311) 0
COX17 (UniProt Q14061) -0.004
CORO1C isoform 3 (UniProt Q9ULV4) 0.015
CPLANE2 (UniProt Q9BU20) -0.097
COMMD4 (UniProt Q9H0A8) 0.064
CPEB4 (UniProt Q17RY0) 0.201
CORO2A (UniProt Q92828) 0.058
COQ6 (UniProt Q9Y2Z9) 0.025
CRACR2B (UniProt Q8N4Y2) -0.176
CPNE2 (UniProt Q96FN4) -0.074
COQ8B (UniProt Q96D53) -0.043
COP1 (UniProt Q8NHY2) 0.008
COX14 (UniProt Q96I36) -0.009
COQ3 (UniProt Q9NZJ6) 0.031
CNDP2 (UniProt Q96KP4) -0.025
COG2 (UniProt Q14746) 0.055
COMMD6 isoform 2 (UniProt Q7Z4G1) 0.123
CPEB3 (UniProt Q8NE35) -0.101
COQ8A (UniProt Q8NI60) -0.161
CNNM1 (UniProt Q9NRU3) 0.069
CPA4 (UniProt Q9UI42) -0.36
CNOT10 (UniProt Q9H9A5) 0.027
COMTD1 (UniProt Q86VU5) 0.167

Nine consecutive entries out of the list so far, quoted:
log2 fold change, inactive:
CPEB4 (UniProt Q17RY0) 0.201
CORO2A (UniProt Q92828) 0.058
COQ6 (UniProt Q9Y2Z9) 0.025
CRACR2B (UniProt Q8N4Y2) -0.176
CPNE2 (UniProt Q96FN4) -0.074
COQ8B (UniProt Q96D53) -0.043
COP1 (UniProt Q8NHY2) 0.008
COX14 (UniProt Q96I36) -0.009
COQ3 (UniProt Q9NZJ6) 0.031
